The source of these data is paper doi:10.1101/2022.06.06.495010.

Amino acid sequences for entries named in this document (tags omitted). Residues count along the entry.
UniProt P29317, residues 24-976: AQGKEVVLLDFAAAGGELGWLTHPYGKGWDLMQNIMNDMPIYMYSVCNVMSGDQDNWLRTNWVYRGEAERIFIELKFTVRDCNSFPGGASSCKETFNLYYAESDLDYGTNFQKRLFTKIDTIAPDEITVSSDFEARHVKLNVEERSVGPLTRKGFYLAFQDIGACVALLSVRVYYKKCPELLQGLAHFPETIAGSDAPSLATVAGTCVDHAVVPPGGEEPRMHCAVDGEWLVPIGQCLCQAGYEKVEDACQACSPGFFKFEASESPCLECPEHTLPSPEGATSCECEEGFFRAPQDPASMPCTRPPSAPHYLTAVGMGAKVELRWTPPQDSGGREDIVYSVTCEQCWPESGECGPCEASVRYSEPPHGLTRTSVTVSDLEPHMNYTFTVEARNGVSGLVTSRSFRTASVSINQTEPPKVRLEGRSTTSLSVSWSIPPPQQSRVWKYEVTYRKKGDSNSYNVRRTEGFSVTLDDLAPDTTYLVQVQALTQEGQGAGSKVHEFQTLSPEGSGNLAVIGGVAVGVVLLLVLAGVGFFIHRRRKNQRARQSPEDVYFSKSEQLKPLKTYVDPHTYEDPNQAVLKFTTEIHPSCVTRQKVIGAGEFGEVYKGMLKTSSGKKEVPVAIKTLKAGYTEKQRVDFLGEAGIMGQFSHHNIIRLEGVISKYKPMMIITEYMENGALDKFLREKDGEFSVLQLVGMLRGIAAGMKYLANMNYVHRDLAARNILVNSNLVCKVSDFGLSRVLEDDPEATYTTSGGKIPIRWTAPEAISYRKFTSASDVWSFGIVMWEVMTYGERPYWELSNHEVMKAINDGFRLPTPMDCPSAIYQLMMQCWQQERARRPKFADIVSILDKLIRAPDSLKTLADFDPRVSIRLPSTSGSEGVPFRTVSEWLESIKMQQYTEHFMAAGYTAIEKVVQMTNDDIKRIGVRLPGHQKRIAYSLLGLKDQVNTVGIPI

The assay concerns the target EphA2 wild-type, full-length, labeled at the C-terminus with mTurquoise or eYFP (human) (UniProt P29317). As to the kind of experiment: FRET or BRET.

No constants are given. Whether binding was seen depends on the method and setting. Binding seen in cells or lysates may run through a third protein. Some results given as binding are weak or reduced against the parent protein; the word gives no strength.

For the substance “EphA2 wild-type, full-length, labeled at the C-terminus with mTurquoise or eYFP (from UniProt P29317 24-976) (receptor)”, the binding entry is listed as “binds”.
